Tests used:
[1] = system: uni-nephrectomized fawn-hooded hypertensive (FHH) rats; assay: Model of FSGS, early disease protocol (blood pressure, proteinuria, histology, weights, urine); assay type: in vivo, rat; conditions: after 8 weeks, n=4/group
Protocol: (§1) Male FHH rats (In-house colony established from animals obtained from Charles River Laboratories, Wilmington, MA) were housed at a certified animal facility at 22°C and a 12∶12 h light/dark cycle. […] All surgeries were performed under isoflurane anesthesia (5% induction, 2% maintenance), at 37°C, and perioperative buprenorphine.
(§2) Following anesthesia, an incision was made in the left flank; the kidney was exposed and excised after ligation of the pedicle. […] Under anesthesia, a mini-pump was placed in a subcutaneous pocket. […] Pumps were replaced once during the treatment period. For the early disease model, five groups of rats were examined. […] For the late disease model, eight groups of rats were examined. […] The dosages of the Ang peptides were selected based on previous studies where Ang-(1-7) was similarly administered using implanted osmotic mini-pumps, [16], [17], [26]. […] Systemic blood pressure was measured by tail-cuff sphygmomanometer (Natume, Japan). Animals were placed on metabolic cages for urine collection at pre-specified time points. Urinary protein excretion was measured by the method of Lowry. Urinary sodium concentration was measured by ion-selective electrodes. At sacrifice, kidneys were harvested for histological analysis and measurement of Ang peptide concentration.
(§3) Upon harvesting, kidneys were cleared of blood by transcardiac perfusion of iced-cold phosphate buffered saline, excised and fixed in 4% paraformaldehyde, embedded in paraffin and processed for microscopic examination. Kidney sections (2-µm) were stained with hematoxylin-eosin (H&E), Jones silver and Periodic Acid Schiff (PAS). Slides were reviewed by an experienced renal pathologist (S.S) in a blinded fashion. Index of glomerulosclerosis was evaluated by a semiquantitative score based on the percentage of the glomerular tuft occupied by sclerotic lesions (0: no lesions, 1: lesions affecting less than 25% of the glomerulus, 2-3-4: lesions affecting 25–50%, 50–75% and 75–100% of the glomerulus, respectively). Tubular injury was rated based on presence of tubular atrophy, microcystic tubular dilation and interstitial fibrosis, from 0 to 3 (0: none; 1: mild; 2: moderate; 3: severe).
Blood pressure data were analyzed by repeated measures ANOVA. Differences within groups were analyzed using paired t-tests adjusted with Bonferroni modification. Differences between group means at each time point were tested using one-way ANOVA followed by Tukey-Kramer post-hoc test. […] If a significant main effect was detected then differences between groups were tested using the Mann-Whitney U test with the probability adjusted using the Bonferroni modification. Urine sodium was also assessed by two-way ANOVA for repeated measures and pairwise multiple comparisons were made using the Holm-Sidak method. […]

[2] = system: uni-nephrectomized fawn-hooded hypertensive (FHH) rats; conditions: late disease model, after 12 weeks, low-dose Ang peptides 100 ng/kg/min iv, captopril 100 mg/kg/d or losartan 20 mg/kg/d orally, n=9/group; for Body Wt, Final (week 30) / Kid. Wt/B. Wt, Final (week 30) / Kidney Wt, Final (week 30): mean (SD), SD
Protocol: as §1, §2, §3
Blood pressure data were analyzed by repeated measures ANOVA. Differences within groups were analyzed using paired t-tests adjusted with Bonferroni modification. Differences between group means at each time point were tested using one-way ANOVA followed by Tukey-Kramer post-hoc test. Urinary protein excretions were log10 transformed and tested using a two-way ANOVA for repeated measures followed by Scheffe post hoc test for differences between the groups. Untransformed 24-hour urinary protein excretions at each time point were then tested using Kruskal-Wallis test. If a significant main effect was detected then differences between groups were tested using the Mann-Whitney U test with the probability adjusted using the Bonferroni modification. Urine sodium was also assessed by two-way ANOVA for repeated measures and pairwise multiple comparisons were made using the Holm-Sidak method. Multiple comparisons of Ang peptide levels were made using ANOVA when data were normally distributed and with log10 transformation when non-normally distributed. Post-hoc pairwise comparisons were made using the Holm-Sidak method. […] For Ang peptide measurements by LC/MS/MS, only values above the LLOQ were utilized for statistical comparisons.

[3] = Ang peptides 100 ng/kg/min iv mini-pump, captopril 100 mg/kg/d in drinking water, captopril n=5, mean (SD), SD

Row | SMILES | Body Wt, Final (week 15) [1, 3] | Kid. Wt/B. Wt, Final (week 15) [1, 3] | Kidney Wt, Final (week 15) [1, 3] | Urine sodium, Final (week 15) ([1]; Ang peptides 100 ng/kg/min iv, captopril 100 mg/kg/d, ion-selective electrodes, captopril n=5) | Urine sodium, Final (week 30) [2] | Body Wt, Final (week 30) [2] | Kid. Wt/B. Wt, Final (week 30) [2] | Kidney Wt, Final (week 30) [2]
1 | C[C@H](CS)C(=O)N1CCC[C@H]1C(=O)O [Captopril, captopril] | 284 (10) g | 0.5 (0.0) g/100 g b.wt | 1.6 (0.1) g | 36.3 (13) mg/day | 36.1 (12) mg/day | 354 (16) g | 0.5 (0.1) g/100 g b.wt | 1.9 (0.1) g
2 | CCCCc1nc(Cl)c(CO)n1Cc1ccc(-c2ccccc2-c2nn[nH]n2)cc1 [Losartan, losartan] |  |  |  |  | 36.5 (13) mg/day | 351 (22) g | 0.6 (0.1) g/100 g b.wt | 2.1 (0.1) g

Source: PMC4206519, “Lack of Renoprotective Effect of Chronic Intravenous Angiotensin-(1-7) or Angiotensin-(2-10) in a Rat Model of Focal Segmental Glomerulosclerosis” (PLoS ONE, 2014)
